Each number is a percent effect as filed.
How 0% and 100% were set is not recorded. Most values in the screen are low, and negative values occur.
This is an unselected part of the compounds tested.
Two or more numbers in one place are separate tests of the same structure; such repeats can differ widely.

Sequences of proteins named here, by UniProt entry; tags and fusion partners are left off. Residues count along the entry.
UniProt Q8IDJ8, 1-583: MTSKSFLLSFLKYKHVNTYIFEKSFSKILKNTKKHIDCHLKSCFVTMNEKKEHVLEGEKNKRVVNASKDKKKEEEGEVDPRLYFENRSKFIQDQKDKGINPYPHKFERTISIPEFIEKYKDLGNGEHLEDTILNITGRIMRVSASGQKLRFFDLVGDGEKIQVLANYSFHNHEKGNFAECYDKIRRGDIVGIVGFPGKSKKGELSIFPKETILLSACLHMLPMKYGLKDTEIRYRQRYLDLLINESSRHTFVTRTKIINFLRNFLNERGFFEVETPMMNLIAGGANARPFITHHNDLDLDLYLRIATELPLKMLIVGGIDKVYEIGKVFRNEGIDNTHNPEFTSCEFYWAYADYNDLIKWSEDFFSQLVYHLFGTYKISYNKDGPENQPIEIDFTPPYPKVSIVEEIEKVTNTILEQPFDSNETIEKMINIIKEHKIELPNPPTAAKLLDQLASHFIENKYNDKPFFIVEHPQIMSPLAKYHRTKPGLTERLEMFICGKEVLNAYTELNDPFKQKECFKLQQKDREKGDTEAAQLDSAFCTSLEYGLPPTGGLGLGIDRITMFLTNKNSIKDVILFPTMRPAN
UniProt A4I591, 1-473: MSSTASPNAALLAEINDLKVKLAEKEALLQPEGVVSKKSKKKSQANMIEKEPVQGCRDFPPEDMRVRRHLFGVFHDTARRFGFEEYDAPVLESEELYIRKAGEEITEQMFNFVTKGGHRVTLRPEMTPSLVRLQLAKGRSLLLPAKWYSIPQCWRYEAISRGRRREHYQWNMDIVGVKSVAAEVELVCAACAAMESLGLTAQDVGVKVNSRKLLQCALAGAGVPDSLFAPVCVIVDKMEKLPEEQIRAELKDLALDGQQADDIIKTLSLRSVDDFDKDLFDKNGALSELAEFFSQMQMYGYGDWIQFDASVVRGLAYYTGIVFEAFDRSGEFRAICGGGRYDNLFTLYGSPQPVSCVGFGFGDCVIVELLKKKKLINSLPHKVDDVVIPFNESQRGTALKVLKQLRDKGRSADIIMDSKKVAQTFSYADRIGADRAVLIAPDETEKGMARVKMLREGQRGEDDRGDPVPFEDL
UniProt Q4DA54, 1-478: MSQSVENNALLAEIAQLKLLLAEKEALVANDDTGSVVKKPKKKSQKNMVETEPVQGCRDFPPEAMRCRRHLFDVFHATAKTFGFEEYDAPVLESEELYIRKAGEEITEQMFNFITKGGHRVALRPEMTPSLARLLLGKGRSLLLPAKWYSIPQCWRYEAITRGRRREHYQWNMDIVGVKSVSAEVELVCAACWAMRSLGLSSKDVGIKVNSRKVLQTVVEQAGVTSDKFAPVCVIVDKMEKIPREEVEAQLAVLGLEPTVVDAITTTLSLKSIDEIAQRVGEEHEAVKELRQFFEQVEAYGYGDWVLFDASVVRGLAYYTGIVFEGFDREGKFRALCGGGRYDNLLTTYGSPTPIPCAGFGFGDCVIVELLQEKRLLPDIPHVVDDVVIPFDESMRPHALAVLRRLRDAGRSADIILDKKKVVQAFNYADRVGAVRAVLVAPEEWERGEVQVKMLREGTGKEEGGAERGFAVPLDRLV
UniProt P9WPC5, whole entry: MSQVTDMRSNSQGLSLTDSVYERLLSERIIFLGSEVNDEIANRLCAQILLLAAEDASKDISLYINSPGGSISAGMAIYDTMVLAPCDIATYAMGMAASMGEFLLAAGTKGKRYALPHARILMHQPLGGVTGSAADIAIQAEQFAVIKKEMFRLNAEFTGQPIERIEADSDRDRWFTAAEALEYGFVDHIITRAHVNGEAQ
UniProt P9WPC3, whole entry partner: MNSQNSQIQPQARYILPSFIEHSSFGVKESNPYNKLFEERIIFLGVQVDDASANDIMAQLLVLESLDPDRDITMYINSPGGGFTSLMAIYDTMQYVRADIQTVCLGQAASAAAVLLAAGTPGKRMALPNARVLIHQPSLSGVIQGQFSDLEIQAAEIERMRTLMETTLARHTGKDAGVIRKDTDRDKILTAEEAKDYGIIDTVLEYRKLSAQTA

PfKRS1: 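Lysine-tRNA ligase, Plasmodium falciparum 3D7 (UniProt Q8IDJ8). Enzyme assay of the cytosolic lysyl-tRNA synthetase in 384-well plates, read by luminescence. Compounds at 30 µM. Direction is inferred from only a few compounds that gave an IC50; most scored high, so higher reads as stronger inhibition. Of about 69,000 compounds tested this way, about 49 (0.071%) reached 50% or more in at least one test.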
LiHisRS: 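Enzyme assay of histidyl-tRNA synthetase; the read-out is not stated. Target: Histidine-tRNA ligase, Leishmania infantum (UniProt A4I591). Concentration: 30 µM. Direction is inferred from retests: higher values go with stronger inhibition. The assay is labelled LdHisRS but filed under L. infantum. About 69,000 compounds were tested under these conditions; 0.6% (about 410) showed 50% or more at least once.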
TcHisRS: 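Histidine-tRNA ligase, Trypanosoma cruzi CL Brener (UniProt Q4DA54). Enzyme assay of histidyl-tRNA synthetase; the read-out is not stated. Compounds at 30 µM. The record gives no direction; compounds that gave an IC50 in retests scored well above the rest, so higher reads as stronger inhibition. About 69,000 compounds were tested under these conditions; 0.045% (about 31) showed 50% or more at least once.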
Leishmania in macrophages: 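Cell assay of Leishmania donovani living inside macrophages; the read-out is not stated. Concentration: 30 µM. The record gives no direction; compounds that gave an IC50 in retests scored well above the rest, so higher reads as stronger inhibition. About 69,000 compounds were tested under these conditions; 1.5% (about 1,000) showed 50% or more at least once.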
ClpP1P2: 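Protease assay of ClpP1P2, read by the AMC dye that it sets free. Target: ClpP1P2, Mycobacterium tuberculosis (UniProt P9WPC5 and UniProt P9WPC3). Compounds at 50 µM. Higher reads as stronger inhibition, judged from the few compounds that gave an IC50. Most other retested compounds had strongly negative values. About 69,000 compounds were tested under these conditions; 0.015% (about 10) showed 50% or more at least once.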

compound: CN(Cc1cc[nH]n1)C(C(=O)O)c1ccc(Cl)cc1 (stereo not shown)
PfKRS1: 2.365%
LiHisRS: 0%
TcHisRS: 8.247%
Leishmania in macrophages: 19.32%
ClpP1P2: -5.016%

compound: COc1ccccc1C1(O)CCCN(C(=O)c2ccnn2C(C)C)C1 (stereo not shown)
PfKRS1: 2.179%
LiHisRS: 9.859%
TcHisRS: 5.385%
Leishmania in macrophages: 2.239%
ClpP1P2: -7.021%

compound: O=C1CCCCN1CSc1nnnn1-c1ccc(Cl)cc1
PfKRS1: 0.9969%
LiHisRS: 7.895%
TcHisRS: 5.028%
Leishmania in macrophages: 7.923%
ClpP1P2: 1.425%

compound: CC(C)C(C(N)=O)c1cccc(Cl)c1 (stereo not shown)
PfKRS1: 4.038%
LiHisRS: 9.302%
TcHisRS: 4.762%
Leishmania in macrophages: 23.22%
ClpP1P2: -0.2385%

compound: Cc1nc(C)c(CC(=O)N2CCC(Oc3ccccc3)CC2)c(=O)[nH]1
PfKRS1: 5.35%
LiHisRS: 16.67%
TcHisRS: 15.29%
Leishmania in macrophages: 1.079%
ClpP1P2: -5.268%

compound: Cc1nc(C)c(C(=O)N2CCCC2(C)C(=O)NC2CCCC2)s1 (stereo not shown)
PfKRS1: 0.523%
LiHisRS: 1.408%
TcHisRS: 2.308%
Leishmania in macrophages: 1.43%
ClpP1P2: -2.39%

compound: COc1ccc(-c2cnc(N)nc2C2CCCNC2)cc1 (stereo not shown)
PfKRS1: 0.3985%
LiHisRS: 12.08%
TcHisRS: 4.286%
ClpP1P2: -13.93%

compound: Cc1ccc(-c2nnc(CN3CCn4c(nnc4C4CC4)C3)o2)cc1
PfKRS1: 0.03353%
LiHisRS: 12.07%
TcHisRS: -20.34%
Leishmania in macrophages: 22.01%
ClpP1P2: -17.89%

compound: Cc1cccc(N2CCN(C(=O)c3c(C)nn(C)c3C)CC2)c1C
PfKRS1: 2.248%
LiHisRS: 14.29%
TcHisRS: 10%
Leishmania in macrophages: 21.59%
ClpP1P2: 11.96%

compound: COc1ccc2c(ccn2CCC(=O)O)c1
PfKRS1: -6.379%
LiHisRS: 0%
TcHisRS: 1.639%
Leishmania in macrophages: 9.834%
ClpP1P2: 8.085%

compound: Cc1c(C(=O)N2CCC(N3CCCCC3)CC2)n(C)c2ccc(Cl)cc12
PfKRS1: 4.155%
LiHisRS: 12.77%
TcHisRS: 4.046%
Leishmania in macrophages: 83.29%
ClpP1P2: -4.339%

compound: CCCn1ncc(CN2CCCC(C(=O)c3ccc(Cl)cc3C)C2)c1C (stereo not shown)
PfKRS1: 2.46%
LiHisRS: 17.5%
TcHisRS: -5.797%
Leishmania in macrophages: 10.1%
ClpP1P2: -38.43%

compound: Cc1cc(O)c(OCC(=O)/N=c2\[nH]c(C)c(C)s2)cn1
PfKRS1: 7.459%
LiHisRS: 20%
TcHisRS: -2.484%
Leishmania in macrophages: 8.613%
ClpP1P2: -10.94%

compound: O=C(c1c2c(NCC3CC3)ncnc2n2ccccc12)N1CCOCC1
PfKRS1: 1.232%
LiHisRS: 10.53%
TcHisRS: 3.448%
Leishmania in macrophages: -11.38%
ClpP1P2: -1146%

compound: Cc1cc(C(=O)N2CC[C@@H]3CN(C)S(=O)(=O)[C@@H]3CC2)no1
PfKRS1: 2.46%
LiHisRS: 9.615%
TcHisRS: 3.883%
ClpP1P2: 3.5%

compound: [H][C@@]12CN(C(=O)c3ccc(C)cc3)C[C@]1([H])CN(c1ncccn1)C2
Leishmania in macrophages: -1.307%

compound: O=C(C1CCCOC1)N1CCCc2ccccc21 (stereo not shown)
PfKRS1: 0.5682%
LiHisRS: 8.621%
TcHisRS: -1.571%
Leishmania in macrophages: 7.946%
ClpP1P2: -2%

compound: Cc1ccc(F)c2c1CCCN2C(=O)Cc1c(C)nn(C)c1C
PfKRS1: -0.594%
LiHisRS: -1.667%
TcHisRS: 1.961%
Leishmania in macrophages: -1.195%
ClpP1P2: -3.967%

compound: O=C(NCCCNC(=O)c1cccc(O)c1)Nc1ccc(Cl)cc1
PfKRS1: 5.245%
LiHisRS: 13.48%
TcHisRS: 3.518%
Leishmania in macrophages: -12.31%
ClpP1P2: 3.786%

compound: CCCn1nnc(NCc2cc(Br)cc(Br)c2OC)n1
PfKRS1: 1.569%
LiHisRS: 9.524%
TcHisRS: 0.9901%
Leishmania in macrophages: -4.655%
ClpP1P2: -4.846%

compound: O=C(c1cnccn1)N1CCO[C@H]2[C@H](OCc3cccnc3)CC[C@@H]21
PfKRS1: 3.376%
LiHisRS: 11.43%
TcHisRS: 2.941%
ClpP1P2: 2.249%

compound: O=C(Nc1nccs1)NC1CCN(Cc2ccccn2)CC1
PfKRS1: 1.252%
LiHisRS: 12.04%
TcHisRS: 2.639%
Leishmania in macrophages: 31.79%
ClpP1P2: -24.28%

compound: CCN1CC(C(=O)N(C)Cc2ccon2)CC1=O (stereo not shown)
PfKRS1: 1.745%
LiHisRS: 1.887%
TcHisRS: 4.237%
Leishmania in macrophages: -35.58%
ClpP1P2: -2.75%

compound: O=C(CN1C=Nc2ccccc2S1(=O)=O)NCCc1cccs1
PfKRS1: 0.4788%
LiHisRS: 31.82%
TcHisRS: 0%
Leishmania in macrophages: -9.039%
ClpP1P2: 0.3999%

compound: O=C(Cn1ccc2ccccc21)NCc1cc(N2CCOCC2)ncn1
PfKRS1: 6.306%
LiHisRS: 19.74%
TcHisRS: 5.419%
Leishmania in macrophages: -3.118%
ClpP1P2: -9.854%

compound: CCCN(C)c1ncc2c(n1)N(C)CCN(CC1CC1)C2=O
PfKRS1: 3.491%
LiHisRS: 8.571%
TcHisRS: 2.26%
Leishmania in macrophages: -9.074% and 13.19%
ClpP1P2: -6.677%

compound: O=C(O)C(F)(F)F.[H][C@@]12CCCO[C@]1([H])[C@H](OCc1ccncc1)CN2S(=O)(=O)CCC
Leishmania in macrophages: 13.79%

compound: Cc1nc(N2CCOCC2)ncc1-c1cc(O)nc(N2CCCC2)n1
PfKRS1: 3.643%
LiHisRS: 6.897%
TcHisRS: 2.609%
Leishmania in macrophages: -0.6254%
ClpP1P2: -22.27%

compound: CN1CCC(CNC(=O)c2cccc(C(F)(F)F)c2)c2ccccc21 (stereo not shown)
PfKRS1: 8.546%
LiHisRS: 17.24%
TcHisRS: 5.759%
Leishmania in macrophages: 21.78%
ClpP1P2: 12.23%

Once more, the final 2:

| compound | PfKRS1 | LiHisRS | TcHisRS | Leishmania in macrophages | ClpP1P2 |
|---|---|---|---|---|---|
| `Cc1nc(N2CCOCC2)ncc1-c1cc(O)nc(N2CCCC2)n1` | 3.643% | 6.897% | 2.609% | -0.6254% | -22.27% |
| `CN1CCC(CNC(=O)c2cccc(C(F)(F)F)c2)c2ccccc21` (stereo not shown) | 8.546% | 17.24% | 5.759% | 21.78% | 12.23% |

From ChEMBL document CHEMBL3988442, “University of Dundee, Small-Polar-MMV Screening Library” (2021).